# Data taken from patent US9855260B2, “Quinolinone derivatives” (GlaxoSmithKline LLC, priority 2011, dated 2018).
# Structures can show the parent of a compound that is named as a salt. Some entries share one result that the patent states for a list of compounds.
# Test system: Human recombinant AMPK
# Experiment: AMPK Enzymatic Assay (Z'Lyte FRET format)
# Type: biochemical
# Conditions: AMPK activation, ATP 100 μM, means of at least 2 independent experiments
Structure (SMILES),average pEC200 (-Log(compound concentration leading to a 2-fold AMPK activity increase)),average pEC50
"Cn1ccc2cc(-c3cc4c(O)c(-c5cccc(C(=O)O)c5)c(=O)[nH]c4cc3Cl)ccc21 [Example 7, 3-[7-Chloro-4-hydroxy-6-(1-methyl-1H-indol-5-yl)-2-oxo-1,2-dihydro-3-quinolinyl]benzoic acid]",greater than or equal to 5.0,
"Cn1ccc2cc(-c3cc4c(O)c(-n5cc(Cl)cn5)c(=O)[nH]c4cc3Cl)ccc21 [Example 134, 7-Chloro-3-(4-chloro-1H-pyrazol-1-yl)-4-hydroxy-6-(1-methyl-1H-indol-5-yl)quinolin-2(1H)-one]",greater than or equal to 5.0,
"O=c1[nH]c2cc(Cl)c(-c3ccc(N4CCOCC4)cc3)cc2c(O)c1Sc1ccccc1 [Example 121, 7-Chloro-4-hydroxy-6-(4-morpholinophenyl)-3-(phenylthio)quinolin-2(1H)-one]",greater than or equal to 5.0,
"Cn1cc(-c2c(O)c3cc(-c4ccc(N5CCCCC5)cc4)c(Cl)cc3[nH]c2=O)cn1 [Example 13, 7-Chloro-4-hydroxy-3-(1-methyl-1H-pyrazol-4-yl)-6-(4-(piperidin-1-yl)phenyl)quinolin-2(1H)-one]",greater than or equal to 5.0,
"COc1cccc(-c2c(O)c3cc(-c4ccc5c(c4)CCC5)c(Cl)cc3[nH]c2=O)c1 [Example 37, 7-Chloro-6-(2,3-dihydro-1H-inden-5-yl)-4-hydroxy-3-(3-methoxyphenyl)quinolin-2(1H)-one]",greater than or equal to 5.0,
"Cc1ccc(-c2ccc(-c3cc4c(O)c(-n5cccn5)c(=O)[nH]c4cc3Cl)cc2)s1 [Example 179, 7-Chloro-4-hydroxy-6-(4-(5-methylthiophen-2-yl)phenyl)-3-(1H-pyrazol-1-yl)quinolin-2(1H)-one]",greater than or equal to 5.0,
"CN(C)c1ccc(-c2cc3c(O)c(-c4ccc(F)cc4)c(=O)[nH]c3cc2Cl)cc1 [Example 149, 7-Chloro-6-(4-(dimethylamino)phenyl)-3-(4-fluorophenyl)-4-hydroxyquinolin-2(1H)-one]",greater than or equal to 5.0,
"O=c1[nH]c2cc(Cl)c(-c3ccc(N4CCOCC4)cc3)cc2c(O)c1-c1ccccc1 [Example 4, 7-Chloro-4-hydroxy-6-[4-(4-morpholinyl)phenyl]-3-phenylquinolin-2(1H)-one]",greater than or equal to 5.0,
"COc1ccc(-c2cc3c(O)c(-c4cc(C)no4)c(=O)[nH]c3cc2Cl)cc1 [Example 101, 7-Chloro-4-hydroxy-6-(4-methoxyphenyl)-3-(3-methylisoxazol-5-yl)quinolin-2(1H)-one]",greater than or equal to 5.0,
"COc1ccc2cc(-c3cc4c(O)c(-c5cc(C)no5)c(=O)[nH]c4cc3Cl)ccc2c1 [Example 123, 7-Chloro-4-hydroxy-6-(6-methoxynaphthalen-2-yl)-3-(3-methylisoxazol-5-yl)quinolin-2(1H)-one]",greater than or equal to 5.0,
"CC(=O)Nc1nc(-c2ccc(-c3cc4c(O)c(Oc5ccccc5)c(=O)[nH]c4cc3Cl)cc2)cs1 [Example 60, N-(4-(4-(7-Chloro-4-hydroxy-2-oxo-3-phenoxy-1,2-dihydroquinolin-6-yl)phenyl)thiazol-2-yl) acetamide]",greater than or equal to 5.0,
"O=c1[nH]c2cc(Cl)c(-c3ccc(CO)cc3)cc2c(O)c1-c1ccccc1 [Example 63, 7-Chloro-4-hydroxy-6-(4-(hydroxymethyl)phenyl)-3-phenylquinolin-2(1H)-one]",greater than or equal to 5.0,
"Cc1cc(-c2c(O)c3cc(-c4ccc(C5(C(=O)O)CC5)cc4)c(Cl)cc3[nH]c2=O)on1 [Example 194, 1-(4-(7-Chloro-3-(3-methylisoxazol-5-yl)-4-oxido-2-oxo-1,2-dihydroquinolin-6-yl)phenyl)cyclopropanecarboxylate, bis potassium salt]",greater than or equal to 5.0,
"CCc1ccc(-c2cc3c(O)c(-c4cccc(OC)c4)c(=O)[nH]c3cc2Cl)cc1 [Example 39, 7-Chloro-6-(4-ethylphenyl)-4-hydroxy-3-(3-methoxyphenyl)quinolin-2(1H)-one]",greater than or equal to 5.0,
"CN(C)c1ccc(-c2cc3c(O)c(-c4ccccc4F)c(=O)[nH]c3cc2Cl)cc1 [Example 155, 7-Chloro-6-(4-(dimethylamino)phenyl)-3-(2-fluorophenyl)-4-hydroxyquinolin-2(1H)-one]",greater than or equal to 5.0,
"COc1cccc(-c2c(O)c3cc(-c4ccc(N(C)C)cc4)c(Cl)cc3[nH]c2=O)c1 [Example 36, 7-Chloro-6-[4-(dimethylamino)phenyl]-4-hydroxy-3-[3-(methyloxy)phenyl]quinolin-2(1H)-one]",greater than or equal to 5.0,
"Cn1ccc2cc(-c3cc4c(O)c(-n5cncn5)c(=O)[nH]c4cc3Cl)ccc21 [Example 131, 7-Chloro-4-hydroxy-6-(1-methyl-1H-indol-5-yl)-3-(1H-1,2,4-triazol-1-yl)quinolin-2(1H)-one]",greater than or equal to 5.0,
"Cc1ccccc1Oc1c(O)c2cc(-c3ccc(N(C)C)cc3)c(Cl)cc2[nH]c1=O [Example 61, 7-Chloro-6-(4-(dimethylamino)phenyl)-4-hydroxy-3-(o-tolyloxy)quinolin-2(1H)-one]",greater than or equal to 5.0,
"CC(=O)Nc1nc(-c2ccc(-c3cc4c(O)c(-c5ccccc5)c(=O)[nH]c4cc3Cl)cc2)cs1 [Example 9, N-{4-[4-(7-Chloro-4-hydroxy-2-oxo-3-phenyl-1,2-dihydro-6-quinolinyl)phenyl]-1,3-thiazol-2-yl}acetamide]",greater than or equal to 5.0,
Cc1nc(-c2c(O)c3cc(-c4ccc(N5CCCCC5)cc4)c(Cl)cc3[nH]c2=O)cs1 [7-chloro-4-hydroxy-3-(2-methylthiazol-4-yl)-6-(4-(piperidin-1-yl)phenyl)quinolin-2(1H)-one],less than 5.0,less than 5.5
"COc1ccccc1Oc1c(O)c2cc(-c3ccc(N(C)C)cc3)c(Cl)cc2[nH]c1=O [Example 87, 7-Chloro-6-(4-(dimethylamino)phenyl)-4-hydroxy-3-(2-methoxyphenoxy)quinolin-2(1H)-one]",greater than or equal to 5.0,
"CN(C)c1ccc(-c2cc3c(O)c([N+](=O)[O-])c(=O)[nH]c3cc2Cl)cc1 [Example 146, 7-Chloro-6-(4-(dimethylamino)phenyl)-4-hydroxy-3-nitroquinolin-2(1H)-one]",greater than or equal to 5.0,
